Where a chain is given by its changes, count along the chain named. No constants are given. Whether binding was seen depends on the method and setting. Some binding calls cover weakened binding; strength is not graded here.
Assays:
[1] = target: rat galectin-9 CRD2 (rat) (UniProt P97840); assay: biolayer interferometry, antibody on anti-Fab probes
[2] = target: cynomolgus monkey galectin-9 CRD2 (cynomolgus monkey); assay: as above
[3] = target: human Galectin-9 CRD2 (residues 218-355) (human) (UniProt O00182); assay: as above
[4] = target: human Galectin-9 CRD2 (residues 218-355) (human) (UniProt O00182); assay: bead assay, flow cytometry: G9.2-17 varied up to 1000 nM with 200 nM galectin-9 CRD2; read-out is CRD2 bound to MuSK ECR on beads; the antibody raises and does not block this binding
[5] = target: human Galectin-9 CRD2 (residues 218-355) (human) (UniProt O00182); assay: SPR
[6] = target: human Galectin-9 CRD2 (residues 218-355) (human) (UniProt O00182); assay: SPR, One Step method, Pioneer; immobilized human CRD2; no measurable off rate
[7] = target: human Galectin-9 CRD2 (residues 218-355) (human) (UniProt O00182); assay: biotinylated CRD2 on streptavidin beads, antibody titrated, flow cytometry
[8] = target: human Galectin-9 CRD2 (residues 218-355) (human) (UniProt O00182); assay: SPR, hGalectin-9 CRD2 immobilized, antibody injected
[9] = target: human Galectin-9 CRD2 (residues 218-355) (human) (UniProt O00182); assay: SPR, One Step method, Pioneer; immobilized human CRD2; KD below the measurable limit of assay
[10] = target: galectin-9 on the HuProt array (UniProt O00182); assay: HuProt protein array, cross-reactivity assay
[11] = target: human Galectin-9 CRD2 (residues 218-355) (human) (UniProt O00182); assay: bead binding, flow cytometry (FIG. 14)
[12] = target: human Galectin-9 CRD2 (residues 218-355) (human) (UniProt O00182); assay: bead assay, flow cytometry: biotinylated Galectin-9 CRD2 on streptavidin beads, G9.2-17 human IgG4 titrated
V289A = target: T1, V289A; assay: bead assay: mutant CRD2 on streptavidin beads, G9.2-17 titrated, KD from the saturation curve, ΔΔG against wild type
T1 sequence (single chain): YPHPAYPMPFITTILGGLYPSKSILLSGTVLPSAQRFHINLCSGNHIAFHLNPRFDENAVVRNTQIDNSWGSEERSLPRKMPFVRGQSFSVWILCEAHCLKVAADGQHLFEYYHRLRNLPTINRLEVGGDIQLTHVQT

Sequences of proteins named here, by UniProt entry; tags and fusion partners are left off. Residues count along the entry.
UniProt P97840, residues 226-354: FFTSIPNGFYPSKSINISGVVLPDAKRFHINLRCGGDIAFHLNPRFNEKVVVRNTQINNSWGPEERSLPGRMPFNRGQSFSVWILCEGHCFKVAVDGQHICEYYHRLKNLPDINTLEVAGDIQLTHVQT

S208A = target: T2, S208A; assay: as above
T2 sequence (single chain): T1 sequence (single chain) with S23A, A104V

A288S = target: T3, A288S; assay: as above
T3 sequence (single chain): T1 sequence (single chain) with A103S, A104V

S275A = target: T4, S275A; assay: as above
T4 sequence (single chain): T1 sequence (single chain) with S90A, A104V

S212A = target: T5, S212A; assay: as above
T5 sequence (single chain): T1 sequence (single chain) with S27A, A104V

L210A = target: T6, L210A; assay: as above
T6 sequence (single chain): T1 sequence (single chain) with L25A, A104V

[13] = target: human Galectin-9 CRD2 (residues 218-355) (human) (UniProt O00182); assay: phage ELISA
R334E = target: T7, R334E; assay: phage ELISA on Galectin-9 CRD2 mutants with phage-displayed G9.2-17
T7 sequence (single chain): T1 sequence (single chain) with A104V, R117E

R271E = target: T8, R271E; assay: as above
T8 sequence (single chain): T1 sequence (single chain) with R54E, A104V

R341E = target: T9, R341E; assay: as above
T9 sequence (single chain): T1 sequence (single chain) with A104V, R124E

R253E = target: T10, R253E; assay: as above
T10 sequence (single chain): T1 sequence (single chain) with R36E, A104V

Y330E = target: T11, Y330E; assay: as above
T11 sequence (single chain): T1 sequence (single chain) with A104V, Y113E

Y236E = target: T12, Y236E; assay: as above
T12 sequence (single chain): T1 sequence (single chain) with Y19E, A104V

[14] = target: human Galectin-9 CRD2 (residues 218-355) (human) (UniProt O00182); assay: phage ELISA on Galectin-9 CRD2 with phage-displayed G9.2-17
[15] = target: human Galectin-9 CRD2 (residues 218-355) (human) (UniProt O00182); assay: ELISA, antibody titrated over immobilized human CRD2
[16] = target: rat galectin-9 CRD2 (rat) (UniProt P97840); assay: bead based binding, rat CRD2
[17] = target: cynomolgus monkey galectin-9 CRD2 (cynomolgus monkey); assay: bead based binding, cynomolgus CRD2

Measured: binding

B1: G9.2-17 human IgG4 (antibody, V domains shown)
VH: EVQLVESGGGLVQPGGSLRLSCAASGFTVSSSSIHWVRQAPGKGLEWVAYISSSSGYTYYADSVKGRFTISADTSKNTAYLQMNSLRAEDTAVYYCARYWSYPSWWPYRGMDYWGQGTLVTVSS
VL: DIQMTQSPSSLSASVGDRVTITCRASQSVSSAVAWYQQKPGKAPKLLIYSASSLYSGVPSRFSGSRSGTDFTLTISSLQPEDFATYYCQQSSTDPITFGQGTKVEIKR
not listed: [13] | R334E | R271E | R341E | R253E | Y330E | Y236E | [14] | [15] | [16] | [17]
binds: all other assays above

B2: G9.2-17 Fab (Fab, V domains shown)
VH: B1 VH
VL: B1 VL
binds: [13] | R334E | R271E | R341E | R253E | Y330E | Y236E | [14]

B3: G9.2-17 mIgG1 (antibody, V domains shown)
VH: B1 VH
VL: B1 VL
binds: [15] | [6] | [16] | [17]
